The values below come from paper PMC11768370, “Etodolac Single Dose Metabolic Profile Elucidation: Pharmacokinetics and Adverse Events in Healthy Volunteers” (Pharmaceuticals, 2025).

For this series, the system named is plasma metabolites. The series is described as follows: Untargeted plasma metabolomic profile pre-dose (T0) vs post-dose (Tmax), UPLC-QToF. In kind it is in vivo, human. The note with it: healthy volunteers, single dose 500 mg. As to the method:
Samples were collected at two times: (i) baseline samples (time 0 h), termed the pre-dose group, and (ii) samples at maximum drug concentration (Cmax), termed the post-dose group. Samples were randomized, and 25 μL of each was collected to form a pooled sample for quality control (QC). An aliquot of plasma (200 μL) was extracted by adding cold methanol (400 μL) for protein precipitation. The samples were then vortexed for 30 s and centrifuged at 12,879× g for 10 min at 4 °C. Finally, the supernatant (400 μL) was collected and dried over a stream of nitrogen gas (N2). Samples were resuspended with 200 µL of acetonitrile (ACN)/water (H2O) (1:1 v/v). Sample extraction and analysis were randomized to reduce instrumental and biological bias. QC samples were analyzed every 10 samples to check for variations in extraction and system stability.
The analysis was adapted and performed on an ACQUITY® FTN H Class (Waters, Newcastle, UK) liquid chromatography (UPLC) coupled to a XEVO-G2XS (QToF) quadrupole time-of-flight mass spectrometer (UPLC-QToF) (Waters, Manchester, UK) equipped with an electrospray ionization (ESI) source operated in the positive and negative ionization mode, separately. An ACQUITY UPLC ® CSH C18 column (2.1 mm × 100 mm × 1.7 µm, Waters, Newcastle, UK) was employed as a stationary phase. The mass spectrometer was operated in MSE mode (DIA, data independent analysis) with an m/z range of 50–1200 Da and an acquisition time of 0.5 s per scan. MSE analysis was operated at 6 eV for low collision energy and a ramp of 20–50 eV for high collision energy. See Supplementary Materials and Methods for more information on metabolomic analysis.
The LC-MS raw data files were processed using Progenesis™ QI v2.4 software (Non-linear Dynamics, Newcastle, UK), which allows adduct selection, peak alignment, deconvolution, and compound annotation via MSE experiments. Progenesis QI generates an intensity table of features labeled according to their nominal masses and retention times as a function of intensity. […]

As to `CCc1cccc2c3c([nH]c12)C(CC)(CC(=O)O)OCC3` (stereo not drawn) [Etodolac], the “palmitoylcarnitine abundance in the blood after administration” value was “decreased in abundance”. Further, under “plasma”, the “flavin mononucleotide relative abundance post-dose” value is reported as “increased relative abundance”; the “tryptophol relative abundance change between T0 and Tmax” value was “more than fourfold increase”.
